Results deposited as PubChem BioAssay AID686938 (Drosophila RNAi Screening Center, 2013).
Test: 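Fly genes required for calcium entry once internal stores are emptied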 (primary screen). System: Drosophila S2R+ cells. Knock-down reagent: long dsRNA against Drosophila genes, about 0.25 µg dsRNA per well, roughly 10,000 cells. Timing: 5 days of knock-down before the calcium assay. Treatment: thapsigargin (SERCA pump blocker) to empty calcium stores; entry signal taken 4 min after adding it. Read-out: 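Duplicate raw fluo-4 intensities per well from a plate reader, at rest and four minutes after thapsigargin emptied calcium stores; entry-to-rest ratio filled for only some wells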. Direction: calcium entry signal: higher = stronger calcium signal after store depletion; entry to resting ratio: higher = more calcium entry relative to resting level; resting calcium signal: higher = higher resting calcium signal. Rule for the call: 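Hit if the duplicate-averaged plate z-score for entry over resting signal is under −3; wells with weak total dye signal (Fmax z < −2) or more than 5 off-targets removed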. Calls: active = strongly reduced calcium entry; inactive = no strong reduction.
The screen tested about 23,000 reagents; this is an unselected part of those that have a named target and a result. In the full data, 75 (0.33%) were called active. 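Raw plate signals without normalisation; calls rest on plate z-scores that were not deposited; ratio present for only 364 wells.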 The numbers tell different reagents against one gene apart. Not stated in the record: the dose of the treatment.

| gene | dsRNA no. | calcium entry signal, replicate 1 (fluorescence units) | calcium entry signal, replicate 2 (fluorescence units) | entry to resting ratio | resting calcium signal, replicate 1 (fluorescence units) | resting calcium signal, replicate 2 (fluorescence units) | activity call |
| --- | --- | --- | --- | --- | --- | --- | --- |
| FoxP (Forkhead box P) | 1 | 3.70e7 | 3.39e7 | – | 1.80e7 | 1.87e7 | inactive |
| FoxP (Forkhead box P) | 2 | 3.59e7 | 4.08e7 | – | 1.78e7 | 2.24e7 | inactive |
| nompB (no mechanoreceptor potential B) | 1 | 3.37e7 | 3.73e7 | – | 1.82e7 | 1.73e7 | inactive |
| nompB (no mechanoreceptor potential B) | 2 | 3.17e7 | 3.18e7 | – | 1.89e7 | 1.60e7 | inactive |
| RhoU | 1 | 3.87e7 | 3.21e7 | – | 1.77e7 | 1.53e7 | inactive |
| RhoU | 2 | 3.73e7 | 3.61e7 | – | 1.79e7 | 1.75e7 | inactive |
| RhoU | 3 | 3.64e7 | 5.08e7 | – | 1.81e7 | 2.87e7 | inactive |
| RhoU | 4 | 2.50e7 | 3.65e7 | – | 1.32e7 | 1.97e7 | inactive |
| RhoU | 5 | 2.91e7 | 2.81e7 | – | 1.51e7 | 1.11e7 | inactive |
| CG4017 | 1 | 3.14e7 | 4.16e7 | – | 1.71e7 | 1.92e7 | inactive |
| CG6614 | 1 | 5.23e7 | – | – | 2.41e7 | – | inactive |
| meigo (medial glomeruli) | 1 | 2.49e7 | 2.82e7 | – | 6.90e7 | 1.53e7 | inactive |
| Cht2 (Chitinase 2) | 1 | 4.38e7 | 3.82e7 | – | 1.86e7 | 1.99e7 | inactive |
| Gale (UDP-galactose 4'-epimerase) | 1 | 4.87e7 | 3.48e7 | – | 2.39e7 | 1.81e7 | inactive |
| Mec2 | 1 | 4.95e7 | 5.60e7 | – | 2.65e7 | 2.40e7 | inactive |
| CG33234 | 1 | 4.89e7 | 4.14e7 | – | 2.31e7 | 1.74e7 | inactive |
| HLH54F | 1 | 4.33e7 | 4.91e7 | – | 1.79e7 | 2.41e7 | inactive |
| CG15628 | 1 | 4.19e7 | 3.88e7 | – | 2.52e7 | 2.11e7 | inactive |
| CG15628 | 2 | 2.75e7 | 3.30e7 | – | 1.40e7 | 1.52e7 | inactive |
| Act5C (Actin 5C) | 1 | 2.54e7 | 3.38e7 | – | 1.25e7 | 1.56e7 | inactive |
| PH4alphaSG1 (prolyl-4-hydroxylase-alpha SG1) | 1 | 3.76e7 | 4.15e7 | – | 1.90e7 | 1.74e7 | inactive |
| Fer3HCH (Ferritin 3 heavy chain homologue) | 1 | 2.99e7 | 3.62e7 | – | 1.49e7 | 1.76e7 | inactive |
| CG10055 | 1 | 4.88e7 | 3.26e7 | – | 2.45e7 | 1.68e7 | inactive |
| Noc2 (Nucleolar complex protein 2) | 1 | 2.49e7 | – | – | 1.30e7 | – | inactive |
| CG4612 | 1 | 3.53e7 | – | – | 1.95e7 | – | inactive |
| Cbp20 (cap binding protein 20) | 1 | 1.42e7 | 1.83e7 | – | 9.23e6 | 4.78e7 | inactive |
| Tet (Ten-Eleven Translocation (TET) family protein) | 1 | 4.29e7 | 4.14e7 | – | 2.32e7 | 1.94e7 | inactive |
| Tet (Ten-Eleven Translocation (TET) family protein) | 2 | 4.73e7 | 4.04e7 | – | 2.46e7 | 1.82e7 | inactive |
| Tet (Ten-Eleven Translocation (TET) family protein) | 3 | 3.94e7 | 3.95e7 | – | 1.94e7 | 1.79e7 | inactive |
| Acp1 (Adult cuticle protein 1) | 1 | 2.62e7 | 3.79e7 | – | 1.10e7 | 1.78e7 | inactive |
| CG12857 | 1 | 3.30e7 | 3.14e7 | – | 1.68e7 | 1.52e7 | inactive |
| Smyd5 (SET and MYND domain containing, class 5) | 1 | 3.97e7 | 4.12e7 | – | 4.80e7 | 1.81e7 | inactive |
| Pc (Polycomb) | 1 | 1.81e7 | 2.97e7 | – | 9.73e6 | 1.53e7 | inactive |

Ordered by “resting calcium signal, replicate 2 (fluorescence units)” (low to high): some entries from above
| gene | dsRNA no. | calcium entry signal, replicate 1 (fluorescence units) | calcium entry signal, replicate 2 (fluorescence units) | entry to resting ratio | resting calcium signal, replicate 1 (fluorescence units) | resting calcium signal, replicate 2 (fluorescence units) | activity call |
| --- | --- | --- | --- | --- | --- | --- | --- |
| RhoU | 1 | 3.87e7 | 3.21e7 | – | 1.77e7 | 1.53e7 | inactive |
| nompB (no mechanoreceptor potential B) | 2 | 3.17e7 | 3.18e7 | – | 1.89e7 | 1.60e7 | inactive |
| nompB (no mechanoreceptor potential B) | 1 | 3.37e7 | 3.73e7 | – | 1.82e7 | 1.73e7 | inactive |
| RhoU | 2 | 3.73e7 | 3.61e7 | – | 1.79e7 | 1.75e7 | inactive |
| RhoU | 3 | 3.64e7 | 5.08e7 | – | 1.81e7 | 2.87e7 | inactive |

More results follow:
| gene | dsRNA no. | calcium entry signal, replicate 1 (fluorescence units) | calcium entry signal, replicate 2 (fluorescence units) | entry to resting ratio | resting calcium signal, replicate 1 (fluorescence units) | resting calcium signal, replicate 2 (fluorescence units) | activity call |
| --- | --- | --- | --- | --- | --- | --- | --- |
| CG6793 | 1 | 3.51e7 | 4.98e7 | – | 1.62e7 | 2.17e7 | inactive |
| TwdlR (TweedleR) | 1 | 3.09e7 | 3.70e7 | – | 1.54e7 | 1.69e7 | inactive |
| SPoCk (Secretory Pathway Calcium atpase) | 1 | 3.07e7 | 3.97e7 | – | 1.42e7 | 1.58e7 | inactive |
| SPoCk (Secretory Pathway Calcium atpase) | 2 | 2.17e7 | 3.26e7 | – | 9.75e6 | 1.39e7 | inactive |
| SPoCk (Secretory Pathway Calcium atpase) | 3 | 3.10e7 | 3.64e7 | – | 1.59e7 | 1.75e7 | inactive |
| SPoCk (Secretory Pathway Calcium atpase) | 4 | 2.93e7 | 4.39e7 | – | 1.40e7 | 1.68e7 | inactive |
| CG17264 | 1 | 3.58e7 | – | – | 2.04e7 | – | inactive |
| Prdm13 (PR/SET domain 13) | 1 | 3.14e7 | 5.05e7 | – | 1.50e7 | 2.05e7 | inactive |
| CG14931 | 1 | 4.20e7 | 5.45e7 | – | 2.16e7 | 2.37e7 | inactive |
| NimB2 (Nimrod B2) | 1 | 4.57e7 | 3.08e7 | – | 2.43e7 | 1.43e7 | inactive |
| Mp20 (Muscle protein 20) | 1 | 2.63e7 | 4.56e7 | – | 1.45e7 | 1.94e7 | inactive |
| SoxN (SoxNeuro) | 1 | 1.64e7 | 2.41e7 | – | 1.06e7 | 1.17e7 | inactive |
| SoxN (SoxNeuro) | 2 | 3.42e7 | 3.12e7 | – | 2.07e7 | 1.57e7 | inactive |
| CG11737 | 1 | 4.51e7 | 3.79e7 | – | 2.22e7 | 1.75e7 | inactive |
| kappaTry | 1 | 2.78e7 | 3.93e7 | – | 1.47e7 | 1.88e7 | inactive |
| CG43131 | 1 | 2.21e7 | 3.99e7 | – | 1.14e7 | 2.05e7 | inactive |
| CG12241 | 1 | 3.74e7 | 4.08e7 | – | 1.58e7 | 1.82e7 | inactive |
| CG4596 | 1 | 3.48e7 | 4.12e7 | – | 1.54e7 | 1.91e7 | inactive |
| GstO1 (Glutathione S transferase O1) | 1 | 2.69e7 | 3.36e7 | – | 1.21e7 | 1.36e7 | inactive |
| Mst84Dd (Male-specific RNA 84Dd) | 1 | 3.29e7 | 2.26e7 | – | 1.63e7 | 1.23e7 | inactive |
| PH4alphaNE3 (prolyl-4-hydroxylase-alpha NE3) | 1 | 5.73e7 | 5.87e7 | – | 2.66e7 | 2.57e7 | inactive |
| CG10680 | 1 | 4.43e7 | 3.92e7 | – | 2.17e7 | 1.68e7 | inactive |
| CG13075 | 1 | 4.92e7 | 6.60e7 | – | 2.46e7 | 2.61e7 | inactive |
| CG12964 | 1 | 3.70e7 | 2.51e7 | – | 2.11e7 | 1.37e7 | inactive |
| CG12964 | 2 | 4.72e7 | 3.76e7 | – | 2.51e7 | 1.79e7 | inactive |
| Fum1 (Fumarase 1) | 1 | 4.05e7 | 2.98e7 | – | 1.88e7 | 1.59e7 | inactive |
| dmGlut (Dietary and metabolic glutamate transporter) | 1 | 5.53e7 | – | – | 2.67e7 | – | inactive |
| PlexB (Plexin B) | 1 | 5.07e7 | 5.00e7 | 2 | 2.59e7 | 1.97e7 | inactive |
| dpa (disc proliferation abnormal) | 1 | 3.35e7 | 3.79e7 | – | 1.62e7 | 1.81e7 | inactive |
| CG30495 | 1 | 4.58e7 | 4.09e7 | – | 2.13e7 | 1.72e7 | inactive |
| Akh (Adipokinetic hormone) | 1 | 3.58e7 | 3.76e7 | – | 1.90e7 | 1.76e7 | inactive |
| Acat1 (Acetyl-CoA acetyltransferase 1) | 1 | 4.59e7 | 3.86e7 | – | 2.09e7 | 1.92e7 | inactive |
| CG32483 | 1 | 5.11e7 | 4.59e7 | – | 2.61e7 | 2.00e7 | inactive |
| CG5946 | 1 | 2.88e7 | 4.82e7 | – | 1.48e7 | 1.96e7 | inactive |
| CG33490 | 1 | 4.38e7 | 2.94e7 | – | 2.83e7 | 1.30e7 | inactive |
| galene | 1 | 3.01e7 | 4.19e7 | – | 1.58e7 | 1.89e7 | inactive |
| galene | 2 | 2.98e7 | 4.36e7 | – | 1.50e7 | 2.00e7 | inactive |
| CG11726 | 1 | 2.37e7 | 4.59e7 | – | 1.27e7 | 1.68e7 | inactive |
| mRpL33 (mitochondrial ribosomal protein L33) | 1 | 3.74e7 | 5.55e7 | – | 1.67e7 | 2.20e7 | inactive |
| CG11044 | 1 | 5.81e7 | 5.79e7 | – | 2.59e7 | 2.68e7 | inactive |
| CG4610 | 1 | 3.45e7 | 3.67e7 | – | 1.77e7 | 1.70e7 | inactive |
| CG4610 | 2 | 3.42e7 | 2.52e7 | – | 1.71e7 | 1.13e7 | inactive |
